## Cleaved PARP after 72 h of treatment

Source: doi:10.1371/journal.pone.0140310, primary screening data, rounded.

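The test systems are human melanoma cell lines, treated with a pair of drugs for 72 h and then stained and imaged. Values are the share of nuclei positive for cleaved PARP as a percentage of the same share in the DMSO control: 100 is the control level, higher means more apoptosis. Every drug was used at one fixed concentration, the higher of two screened. No replicate spread is given; individual values may be noisy. Basal and induced levels differ widely between cell lines.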
An unselected part of the screen is shown.
A dash means that no value is listed here.

Drug key:
veliparib, 7 µM: C[C@]1(c2nc3c(C(N)=O)cccc3[nH]2)CCCN1
etoposide, 0.1 µM: COc1cc([C@@H]2c3cc4c(cc3[C@@H](O[C@@H]3O[C@@H]5CO[C@@H](C)O[C@H]5[C@H](O)[C@H]3O)[C@H]3COC(=O)[C@H]23)OCO4)cc(OC)c1O
palbociclib, 0.2 µM: CC(=O)c1c(C)c2cnc(Nc3ccc(N4CCNCC4)cn3)nc2n(C2CCCC2)c1=O
STA-4783, 0.03 µM: CN(NC(=O)CC(=O)NN(C)C(=S)c1ccccc1)C(=S)c1ccccc1
BI-78D3, 1 µM: O=c1[nH]nc(Sc2ncc([N+](=O)[O-])s2)n1-c1ccc2c(c1)OCCO2
vincristine, 0.0005 µM: CC[C@]1(O)C[C@H]2CN(CCc3c([nH]c4ccccc34)[C@@](C(=O)OC)(c3cc4c(cc3OC)N(C=O)[C@H]3[C@@](O)(C(=O)OC)[C@H](OC(C)=O)[C@]5(CC)C=CCN6CC[C@]43[C@@H]65)C2)C1
enzastaurin, 4 µM: Cn1cc(C2=C(c3cn(C4CCN(Cc5ccccn5)CC4)c4ccccc34)C(=O)NC2=O)c2ccccc21
sunitinib, 2 µM: CCN(CC)CCNC(=O)c1c(C)[nH]c(/C=C2\C(=O)Nc3ccc(F)cc32)c1C
TCS401, 8.33 µM: O=C(O)C(=O)Nc1sc2c(c1C(=O)O)CCNC2

| Drugs | SK-MEL-2 | LOX IMVI | MeWo | WM3619 |
|---|---|---|---|---|
| sunitinib and enzastaurin | 93.0 | 43.2 | 90.8 | 97.3 |
| etoposide and STA-4783 | 26.1 | 69.4 | 774 | - |
| veliparib and etoposide | 440 | 100 | 76.9 | 113 |
| veliparib and sunitinib | 191 | 35.1 | 134 | 111 |
| BI-78D3 and etoposide | 188 | 335 | 134 | 152 |
| etoposide and palbociclib | 67.3 | 110 | 27.0 | 174 |
| palbociclib and enzastaurin | 177 | 356 | 168 | 142 |
| TCS401 and veliparib | 118 | 105 | 159 | 248 |
| palbociclib and vincristine | 130 | 116 | 179 | 174 |
| etoposide and vincristine | 226 | 252 | 282 | 138 |
| sunitinib and vincristine | 116 | 62.7 | 177 | 210 |
| palbociclib and STA-4783 | 92.8 | 219 | 540 | 713 |
| veliparib and palbociclib | 30.4 | 223 | 65.5 | 146 |
| TCS401 and BI-78D3 | 81.3 | 206 | 87.9 | 96.2 |
| BI-78D3 and palbociclib | 23.1 | 113 | 66.4 | 122 |
| TCS401 and palbociclib | 61.2 | 98.2 | 146 | 150 |
| veliparib and enzastaurin | 236 | 157 | 57.4 | 152 |
| TCS401 and etoposide | 379 | 28.9 | 88.5 | 346 |
| enzastaurin and BI-78D3 | 62.6 | 133 | 64.3 | 97.8 |
| TCS401 and sunitinib | 137 | 120 | 33.3 | 101 |
| STA-4783 and vincristine | 230 | 55.3 | 1230 | 904 |
| BI-78D3 and vincristine | 300 | 220 | 211 | 214 |
| TCS401 and enzastaurin | 334 | 128 | 96.1 | 96.9 |
| veliparib and STA-4783 | 203 | 72.6 | 1970 | 2000 |
| vincristine and veliparib | 826 | 217 | 313 | 264 |
| STA-4783 and sunitinib | 13.4 | 137 | 1890 | 1300 |
| veliparib and BI-78D3 | 158 | 174 | 107 | 76.8 |
| BI-78D3 and sunitinib | 118 | 90.7 | 166 | 132 |
| enzastaurin and etoposide | 282 | 111 | 121 | 110 |
| sunitinib and etoposide | 220 | 122 | 123 | 121 |
| BI-78D3 and STA-4783 | 18.4 | 111 | 2610 | 793 |
| vincristine and enzastaurin | 277 | 221 | 269 | 153 |
| TCS401 and STA-4783 | 40.7 | 177 | 221 | 1630 |
| TCS401 and vincristine | 1240 | 196 | 861 | 311 |
| palbociclib and sunitinib | 15.4 | 96.3 | 240 | 132 |

For reference, 3 entries once more:

Drugs	SK-MEL-2	LOX IMVI	MeWo	WM3619
vincristine and veliparib	826	217	313	264
etoposide and palbociclib	67.3	110	27.0	174
STA-4783 and sunitinib	13.4	137	1890	1300